These results are taken from article PMC11065752.

Chains of the proteins cited; added tags and fusions are not shown.
UniProt Q08J23: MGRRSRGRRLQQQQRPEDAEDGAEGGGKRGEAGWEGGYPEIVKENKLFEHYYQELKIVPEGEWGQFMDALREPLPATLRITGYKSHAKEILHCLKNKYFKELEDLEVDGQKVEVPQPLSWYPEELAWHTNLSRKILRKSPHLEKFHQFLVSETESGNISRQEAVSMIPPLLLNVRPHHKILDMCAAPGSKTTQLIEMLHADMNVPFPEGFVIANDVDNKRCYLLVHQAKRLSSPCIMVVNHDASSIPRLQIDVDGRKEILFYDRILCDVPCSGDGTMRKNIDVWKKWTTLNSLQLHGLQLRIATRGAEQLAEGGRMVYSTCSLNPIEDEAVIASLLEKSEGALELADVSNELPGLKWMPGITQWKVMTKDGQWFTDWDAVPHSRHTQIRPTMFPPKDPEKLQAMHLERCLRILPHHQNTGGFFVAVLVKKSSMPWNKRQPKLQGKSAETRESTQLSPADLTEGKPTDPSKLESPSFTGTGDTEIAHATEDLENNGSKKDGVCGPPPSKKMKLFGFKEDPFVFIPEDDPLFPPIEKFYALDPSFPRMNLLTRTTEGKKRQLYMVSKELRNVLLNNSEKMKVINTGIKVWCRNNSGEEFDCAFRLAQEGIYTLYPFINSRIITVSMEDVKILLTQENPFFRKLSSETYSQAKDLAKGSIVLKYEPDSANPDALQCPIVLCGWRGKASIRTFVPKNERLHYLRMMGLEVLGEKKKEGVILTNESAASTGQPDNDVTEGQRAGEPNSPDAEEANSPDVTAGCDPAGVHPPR
UniProt P67809: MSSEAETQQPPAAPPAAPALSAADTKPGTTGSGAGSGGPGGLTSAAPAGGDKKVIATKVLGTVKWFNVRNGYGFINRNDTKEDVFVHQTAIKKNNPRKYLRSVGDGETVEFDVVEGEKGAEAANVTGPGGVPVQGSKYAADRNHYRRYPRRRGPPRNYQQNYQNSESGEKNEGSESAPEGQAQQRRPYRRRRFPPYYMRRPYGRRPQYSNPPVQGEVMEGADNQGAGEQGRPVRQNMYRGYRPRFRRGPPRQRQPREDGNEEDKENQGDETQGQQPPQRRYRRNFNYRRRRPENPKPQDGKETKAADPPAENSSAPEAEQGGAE

These are yes or no findings as the source states them, for the method shown. Binding seen in cells or lysates may run through a third protein. Some entries that bind do so weakly or less than the wild type.

The experiment addresses NOP2/Sun RNA methyltransferase family member 2 (NSUN2), flag-tagged (UniProt Q08J23). Kind of experiment: co-IP; co-IP in H1299 cells by the text (A549 cells by the legend of Fig. 8E); antibodies and bait not stated.

Consider YBX1 (from UniProt P67809 1-324), for which the binding result is on record as “binds”.
